Measurements from US20250361219A1, “SYSTEMS AND METHODS FOR SEPARATION OF CHEMICAL SPECIES, SUCH AS CANNABINOIDS, USING MULTIPLE LIQUID PHASES” (priority 2022, published 2025).

Assay: Pilot plant scale 5-stage multi-stage extraction of aldehydes
Conditions: pilot scale 5-stage system, feed at stage 3, 1/4 feed to organic ratio, 2.75/1 aqueous to organic outlet phase ratio

SMILES | Experimental Extraction Efficiency (percentage extracted into the aqueous phase) [%]
CCc1ccc(C=O)cc1 [4-ethylbenzaldehyde] | 43.8
CC(C)c1ccc(C=O)cc1 [Cuminaldehyde, cuminaldehyde] | 58.8
